In article PMC12654916:

Target: HA-tagged SIN3 (Drosophila melanogaster)
Experiment: affinity purification with mass spectrometry; HA-tagged SIN3 immunoprecipitated from Drosophila S2 cells treated with PBS or 2-DG; no tag control; TMTpro 16plex with LC-MS/MS (RTS, SPS); five biological replicates

binding: binds
B1: Negative elongation factor A (NELF-A) (protein, UniProt Q86NP2 1-1251)
chain: MANVRDSDTSLWLHNKLGTSNDSWINGSICSQLNKEVLRNIKECFPDLQTQVKLKLLLSFLHIPRRLVEEWKAELEEVIEVAGLDSELWVSMLAETMKTFPATSSLNTEISDYEDTRPIFIDMVNDLRKLVTKHSDLGMLPLECQYLNKNALISVVGQQPAPVKHFTLKRKPKSAQLRTELLHKSADAQSSLKKASAPTIPLRSRGMPRKMTDTTPLKGIPSRMPTTGFRSATVPGNAAQRPNLSRTPAGRKDGGIKLIEFTEQPLGYAAAKKRKREQQLEEQQKKQEQKQQQAAAAAAAAATAAASNAGDSSPTDAATASGGETPVTPTSANNSFEIKMEPQQLNQSAGSLEEPQDDEMSGKANMECDIETPEYATATLDFAQATSTSVADGQPGKPAVETKLKTPRTPKSAAKLNNNNNNNNNNSFNHTPKRIKQEIEIKSEEIIVPASIKLEKIETSPSTQRVSIQQQPPSLVQRTPHLLIRSSPQKRQNNGATTSAGTTTTTVGNTTIKMEKLDIKPMIRATGVSPSTSAGTTTTLLTPQQLRQAANPLANLPNNISVKITSAKAKAAAAAAATSSGSQTQSQQPQTLQVQQAPQQSHPPLLINSSTPVILASSPSAQRAKALALPSSSTSATTTTTIPSQAIKTMPLSQLKTATNSGPVIISQTIIQPAKRAQQQAGTSSAAAASQQQQQQQSQQQLLHQQIQQQTQQQAQLPQQPQQQQTQYILATPQQQPQQIQQQQQQQQPILPTLTSFSHSRPMPQTTTLYQATTPSGSGQTPTKILLKTSGSSSVVMTPLRQAQPQQATAVVSSNPPPLVATSAAVVSPGQTTLNIQNVQLPNRPVTIQPASQAAQQQHMQAQLQQQQPHPQHTIVANTTATQQPKLSQVLMQPTAAVGTSGVSALNVSPTSGKNKTIILTQKGVILRNIGGDMYQQIPISNVGNMQGLGGTTLMTTTAGPPSLVKTTPSSGVQLQQQQSGKQILPTLIPTSSLGGQHVIVQQQQPTNVIGNSQQQTIIRPVMTNVGGGLTTLPQGLTLIQRPGQQPQLVQVQAAPGSTQRTIITQSNTAAAASQQQPRQQQQQILVQHKPAPTLQQRLVTSTTSGGQGQQGNPNAGLPRTVQVQVQAQQQQQPQQQQATQQQSQQAPQRRGLSLSNEHVHKAHEMFRKANRVSRPDKALILGFMAGLRENPRPNNENVLVIKLGETEEKVQQDNGHTALCLVESHIRLDYNTGEWKTFQNYRLQDQSAAS

binding: binds
B2: MRG15 (protein, UniProt Q9Y0I1 1-424)
chain: MGEVKPAKVENYSTGTDANTLFVDGERVLCFHGPLIYEAKVLKTKPDATPVEYYIHYAGWSKNWDEWVPENRVLKYNDDNVKRRQELARQCGERSKKDNKKGSAKAKKMEQMRNESRASTPSKDSNTSQSTASSTPTTSAGPGSKSEAGSTGTTTTNSTANSTTSRAHRKSTQSTPSTARPGTPSDKKEDPAAAETTEEEGPVAPKKKRMSEQRPSLTGSDVAEKPLPPTTTPSTPTTEPAPCVESEEAYAAKVEVKIKIPDELKHYLTDDWYAVVREHKLLELPAKVTVQQISEQYLAHKKSVKSTSASKEVAINDVLDGIVEYFNVMLGSQLLYKFERTQYADVMQKHPDTPLSELYGSFHLLRLFVRLGSMLSYSALDQQSMQNLLTHVQDFLKFLVKNSSIFFSMSNFINVDPEYVRNAQ

No constants are given. Whether binding was seen depends on the method and setting. In cells and extracts the contact can be indirect. Here binding means that the protein was enriched with, or labelled near, the bait; the list need not be complete. Each block holds one binder with its values, some of them ahead of it.
